Patent US6884776B1, “Antimicrobial peptides derived from ubiquicidine” (priority 1997, dated 2005)
At least one peptide structure holds a part that was inferred or is arguable (an end, a ring closure or a residue). Some entries share one result that the patent states for a list of compounds. Where no end group is shown, it is not given here.

Legend:
[1] = tested on: Klebsiella pneumoniae; assay: growth-killing curve determination, 60 minutes at 37° C., CFU; format: cell-based
Protocol: (§1) Different techniques were used to test for the antimicrobial activity of ubiquicidine and peptides derived therefrom.
(§2) In the control incubations the bacteria multiplied a number of times (not shown).
(§3) Peptides were prepared using an Abimed AMS multiple peptide synthesizer and a fixed phase (tentagel AC, a polymer of polyethylene glycol spacer linked to a polystyrene matrix) (de Koster et al. (1995) J. Immunol. Methods 187:179-188). After completion of the synthesis the peptide was released from the fixed phase using a trifluoroacetic acid water(19:1) mixture and the peptides were subsequently precipitated with an ether pentane(1:1) mixture at […]. After centrifugation the obtained pep-tides were dried at 40° C. for 15 minutes. The peptides were subsequently dissolved in 10% acetic acid and concentrated by means of vacuum centrifugation. The purity of the peptides was determined using HPLC. The antimicrobial activity of these peptide fragments was determined as described in Example 1 under 2.3.

[2] = tested on: Staphylococcus aureus; assay: as above; format: cell-based
Protocol: as §1, §2, §3

[3] = tested on: multidrug resistant Staphylococcus aureus (MRSA) and antibiotic-sensitive S. aureus; assay: killing of multidrug resistant (MRSA) and antibiotic-sensitive S. aureus strains, 60 minutes at 37° C.; format: cell-based; conditions: different Staphylococcus aureus strains, FIG. 5
[4] = tested on: Staphylococcus aureus; assay: speed of elimination of Staphylococcus aureus at 7 μM peptide; format: cell-based; conditions: 37° C., FIG. 7
[5] = tested on: Klebsiella pneumoniae (A) or Staphylococcus aureus (B); assay: effect of antimicrobial peptides on experimental thigh muscle infection in mice; format: in vivo

Sequence | antimicrobial activity of peptide fragments [1] | antimicrobial activity of peptide fragments [2] | effect on number of CFUs [3] | time to maximum killing effect [4] [min] | elimination of bacteria in the muscle compared with other peptides ([5]; 25 μg intraperitoneally, 24 hours) | bactericidal effect in vivo ([5]; FIG. 14)
KVAKQEKKKKKTGRAKRR [ubiquicidine (18-35)] | demonstrated antimicrobial activity | demonstrated antimicrobial activity | marked decrease in the number of CFUs | ≤ 15 | more effectively than ubiquicidine (1-18) and defensins | marked bactericidal effect in vivo which is better than that of defensin
KVHGSLARAGKVRGQTPK [ubiquicidine (1-18)] | demonstrated antimicrobial activity | demonstrated antimicrobial activity |  |  |  | 
